PubChem BioAssay AID1259308 | NCATS – 2017

Screen: 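Knock-downs that increase output of a recombinant reporter protein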 (primary screen)
System: human HEK293 embryonic kidney cells stably expressing firefly luciferase (HEK-CMV-Luc2-Hygro)
Knock-down reagent: single siRNA against human genes, 0.8 pmol siRNA per well
Time to read-out: 72 h
Detection: 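Reporter luminescence and viable-cell signal on separate replicate plates, given as percent of non-targeting control and median/MAD z-scores, plus per-cell luciferase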
Direction: total luciferase, z-score and total luciferase, % of control: higher = more reporter protein produced; luciferase per cell, z-score: higher = more reporter output per viable cell; viable cells, % of control: higher = more viable cells
Active means: 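An siRNA counts as active if its total luciferase robust z-score exceeds 3; genes with two or more such siRNAs out of three were retested with fresh siRNAs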
Calls: active = raised luciferase; inactive = no rise
Here is one part, drawn at random, of about 59,000 deposited reagents. About 1,510 of them (2.6%) count as active. 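Calls use total luciferase alone and ignore viability, so some active siRNAs may act by altering cell number.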 Entries without a mark were called inactive. Reagents against one gene are numbered here. Reagent sequences are not shown.

target gene	reagent no.	total luciferase, z-score	total luciferase, % of control	luciferase per cell, z-score	viable cells, % of control
PPIAP8	1	1.97	121	1.48	91.5
PPIAP8	2	1.9	120	1.62	87.3
PPIAP8	3	-0.667	68.6	-0.372	84.6
CHMP2B	1	-0.677	68.4	-0.34	83.6
CHMP2B	2	1.59	114	1.48	85.9
CHMP2B	3	-0.0923	80.1	0.225	84.3
PAGE1	1	-0.652	68.9	-0.317	83.7
PAGE1	2	0.047	82.8	1.59	60.9
PAGE1	3	-2.46	33	-1.21	50.7
SOX13	1	-0.689	68.2	-1.11	102
SOX13	2	-0.623	69.5	-0.851	97.2
SOX13	3	1.95	121	2.47	70.3
TLCD3A	1	0.0358	82.6	-0.275	99.2
TLCD3A	2	0.777	97.3	0.252	102
TLCD3A	3	0.0146	82.2	-0.742	112
DNAH17	1	-0.0853	80.2	0.216	84.6
DNAH17	2	0.646	94.7	0.885	83.9
DNAH17	3	-0.357	74.8	-0.143	86.8
SPDYE21	1	0.783	97.5	0.235	102
SPDYE21	2	2.61	134	1.33	105
SPDYE21	3	-0.47	72.5	-0.832	101
HUNK	1	0.129	84.5	0.047	93.2
HUNK	2	0.502	91.9	-0.289	111
HUNK	3	-0.923	63.5	-1.3	100
USP49	1	6.17 (active)	205	4.58	68.4
USP49	2	-0.859	64.8	0.238	68
USP49	3	0.636	94.5	0.594	90.3
RNASEH2B	1	-0.0181	81.5	0.528	79.3
RNASEH2B	2	0.601	93.8	-0.157	109
RNASEH2B	3	0.208	86	0.204	91.1
C1orf53	1	1.04	102	0.436	102
C1orf53	2	0.26	87.1	-0.352	107
C1orf53	3	0.659	95	0.758	87
TAS1R1	1	0.438	90.6	0.457	89.8
TAS1R1	2	-0.26	76.7	-0.375	94.6
TAS1R1	3	-0.948	63	-0.955	90.6
DCTN5	1	2.62	134	2.13	85.3
DCTN5	2	-0.458	72.8	-0.486	92.4
DCTN5	3	-0.962	62.8	-1.23	96.9
C19orf48P	1	0.559	93	0.127	101
C19orf48P	2	-1.71	47.9	-1	69.7
C19orf48P	3	-1.04	61.3	-0.255	73.2
ENG	1	3.13 (active)	144	1.96	96.3
ENG	2	0.0988	83.9	-0.24	99.8
ENG	3	1.36	109	0.877	96.7
AP1S2	1	1.88	119	1.4	92.3
AP1S2	2	-0.385	74.2	-0.0149	83.3
AP1S2	3	-0.48	72.3	-0.629	95.4
CXCL9	1	-0.869	64.6	-0.197	76
CXCL9	2	-0.717	67.6	-0.362	83.1
CXCL9	3	0.0202	82.3	0.374	83.3
METTL18	1	-0.93	63.4	-0.277	76.2
METTL18	2	0.838	98.6	0.757	90.2
METTL18	3	3.5 (active)	151	2.54	86.7
ZNF296	1	-0.469	72.5	-0.239	86.3
ZNF296	2	-1.29	56.3	-1.33	89.2
ZNF296	3	-1.73	47.5	-2.18	94.3
ZNF831	1	1.49	111	0.799	101
ZNF831	2	-1.1	59.9	0.106	65.1
ZNF831	3	0.165	85.2	0.0701	93.4
SLC44A1	1	0.0821	83.5	0.208	88.4
SLC44A1	2	-1.05	60.9	0.206	64.5
SLC44A1	3	-0.424	73.5	-0.354	90.1
SLC37A3	1	-0.418	73.6	-1.14	111
SLC37A3	2	-0.609	69.8	0.307	71.9
SLC37A3	3	-0.932	63.4	-1.04	93.2
KCNT2	1	0.123	84.3	0.192	89.6
KCNT2	2	-0.453	72.9	-0.368	89.7
KCNT2	3	-2.71	28	-3.54	79.5
KRT37	1	-0.178	78.4	-0.479	99.3
KRT37	2	-0.821	65.6	-1.1	97.8
KRT37	3	0.968	101	0.213	107
SERPINB8	1	-0.492	72.1	-0.411	89.8
SERPINB8	2	2.55	133	2.09	85.5
SERPINB8	3	0.155	85	-0.645	113
